Laboratory results: patent US11186577B2, “Vasopressin receptor antagonists and products and methods related thereto” (BlackThorn Therapeutics, Inc., priority 2017, dated 2021)
The structures given here were assigned with low confidence; some may be wrong.

Sequences of proteins named here, by UniProt entry; tags and fusion partners are left off.
UniProt P30559, whole entry: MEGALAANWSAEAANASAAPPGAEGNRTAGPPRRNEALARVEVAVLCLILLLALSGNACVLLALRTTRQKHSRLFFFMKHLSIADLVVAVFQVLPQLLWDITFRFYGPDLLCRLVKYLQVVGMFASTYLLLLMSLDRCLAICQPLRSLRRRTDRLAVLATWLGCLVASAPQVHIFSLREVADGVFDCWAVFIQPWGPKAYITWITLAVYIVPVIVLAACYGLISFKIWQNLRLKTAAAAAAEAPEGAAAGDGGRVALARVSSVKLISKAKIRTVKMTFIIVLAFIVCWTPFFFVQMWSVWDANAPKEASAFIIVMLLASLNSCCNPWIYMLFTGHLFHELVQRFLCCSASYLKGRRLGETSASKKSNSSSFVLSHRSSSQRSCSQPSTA
UniProt P37288, whole entry: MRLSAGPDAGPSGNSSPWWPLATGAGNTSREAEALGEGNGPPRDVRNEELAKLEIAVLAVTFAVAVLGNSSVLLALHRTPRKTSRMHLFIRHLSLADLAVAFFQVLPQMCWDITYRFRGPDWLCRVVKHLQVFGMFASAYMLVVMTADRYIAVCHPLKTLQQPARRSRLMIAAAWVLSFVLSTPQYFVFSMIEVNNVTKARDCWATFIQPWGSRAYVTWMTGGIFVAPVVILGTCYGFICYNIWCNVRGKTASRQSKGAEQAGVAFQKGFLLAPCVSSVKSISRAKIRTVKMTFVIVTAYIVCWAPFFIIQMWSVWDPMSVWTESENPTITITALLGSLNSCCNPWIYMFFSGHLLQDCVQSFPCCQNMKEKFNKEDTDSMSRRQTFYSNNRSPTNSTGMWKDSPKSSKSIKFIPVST

Assays:
[1] = target: human Oxytocin Receptor (hOTR) (Homo sapiens (Human), UniProt P30559); assay: Oxytocin receptor antagonist assay (oxytocin-evoked calcium, FLIPR, CHEM-1-hOTR cells); conditions: read-out: OT IC50
MDR1-MDCK cells = assay: MDR1-MDCK effective efflux assay (Transwell, 10 μM, 1 hour), MDR1-MDCK cells; conditions: apical to basolateral (A>B)
[2] = target: human Arginine Vasopressin Receptor 1a (AVPR1a) (Homo sapiens (Human), UniProt P37288); assay: Vasopressin V1A receptor antagonist assay (AVP-evoked calcium, FLIPR, CHO-AVPR1a cells); assay type: cell-based; conditions: read-out: V1a IC50
[3] = test system: wild-type (WT) MDCK cells; assay: MDR1-MDCK effective efflux assay (Transwell, 10 μM, 1 hour), wild-type MDCK cells; conditions: apical to basolateral (A>B)

## CC(C)OC(=O)N1Cc2cc(Cl)ccc2-n2c(nnc2C2CC3(C2)CN(c2ccccn2)C3)C1
[1]
  IC50: 100 to 500 nM
MDR1-MDCK cells
  Papp AB MDR1: ++++ ((++++) denotes >20 (10^-6 cm/sec))
[2]
  IC50: < 100 nM
[3]
  Papp AB WT: ++++ ((++++) denotes >20 (10^-6 cm/sec))
